Assays:
[1] = C17H12O6 content of treated corn
Description: The data presented in Table-4 illustrates the efficiency of the system of the present disclosure in detoxifying pre-conditioned contaminated corn.
Three sets of C17H12O6 contaminated 70 kg's of corn were separately decontaminated in the system of the present disclosure. In this case, corn samples were pre-conditioned with a pre-conditioning liquid and exposed to trioxygen gas for up to 5 minutes. The products were put under pressure of trioxygen gas for a span of 9 minutes to 26 minutes. Based on the commodity characteristics, the exposure of trioxygen gas was repeated 20 times. Trioxygen gas having capacity 500 g/h was generated by the trioxygen generator of the system (on site) with a constant oxygen flow rate and delivered to the decontamination chamber through silicon tube. All 3 sets of products were air dried and then analyzed for the presence of the contaminant and the results obtained are summarized in Table-4

[2] = C17H12O6 content of treated groundnuts; settings: groundnut
Description: The data presented in Table-3 illustrates the efficiency of the system of the present disclosure in detoxifying contaminated groundnuts.
Three sets of C17H12O6 contaminated 3 kg's, 60 kg's and 60 kg's of groundnuts were separately pre-conditioned and decontaminated in the system. In this case, groundnuts were pre-conditioned and exposed with trioxygen gas for up to 5 minutes. The products were put under pressure of trioxygen gas for a span of 9 minutes to 26 minutes. Based on the commodity characteristics, the exposure of trioxygen gas was repeated 15 times. Trioxygen gas having capacity 500 g/h was generated by the trioxygen generator of the system (on site) with a constant oxygen flow rate and delivered to the decontamination chamber through silicon tube. All 3 sets of products were heated and then analyzed for the presence of the contaminant and the results obtained are summarized in Table-3.

[3] = C17H12O6 content of treated whole red chilli; settings: whole red chilli 12 kg's, before treatment 22.54 ppb
Description: This experiment illustrates the treatment of aerobic micro-organisms, yeast, mould, coliform, E. coli, Salmonella and fat soluble metabolites contaminated whole red chilli.
The data presented in Table-2 illustrate the efficacy of the present disclosure in detoxifying contaminated whole red chillies. […].
The red chillies were exposed with Trioxygen for 2 minutes. The products were put under pressure of trioxygen gas for a span of 9 minutes to 26 minutes. Based on the commodity characteristics, the exposure of trioxygen gas was repeated 10 times. Trioxygen gas having a capacity 500 g/h was generated by the trioxygen generator (on site) of the system with a constant oxygen flow rate and delivered to the decontamination chamber through silicon tube. The whole red chillies were then treated to heated air.

In the case of `O=[O+][O-]` [Trioxygen], the “C17H12O6, Results After Treatment” value ([1]; Sr. No. 1, 70 kg's, before treatment 54.20 ppb) is reported as “Not detected”, the “C17H12O6, Results After Treatment” value ([1]; Sr. No. 2, 70 kg's, before treatment 161.48 ppb) is reported as 23.56 ppb and the “C17H12O6, Results After Treatment” value ([1]; Sr. No. 3, 70 kg's, before treatment 11.03 ppb) is reported as “Not detected”. The “C17H12O6, Results After Treatment” value ([2]; Sr. No. 1, 3 kg's, before treatment 101.84 ppb) was “Not detected”, the “C17H12O6, Results After Treatment” value ([2]; Sr. No. 2, 60 kg's, before treatment 44.57 ppb) was 2.95 ppb and the “C17H12O6, Results After Treatment” value ([2]; Sr. No. 3, 60 kg's, before treatment 377.69 ppb) was 137.53 ppb. For the same compound, the “C17H12O6, Results After Treatment” value ([3]; Trial 2) was 6.10 ppb and the “C17H12O6, Results After Treatment” value ([3]; Trial 3) was 5.31 ppb.
